Measurements published in PMC9254479.
These are yes or no findings as the source states them, for the method shown. In cells and extracts the contact can be indirect. Some entries that bind do so weakly or less than the wild type.

Chains of the proteins cited; added tags and fusions are not shown.
UniProt Q16531: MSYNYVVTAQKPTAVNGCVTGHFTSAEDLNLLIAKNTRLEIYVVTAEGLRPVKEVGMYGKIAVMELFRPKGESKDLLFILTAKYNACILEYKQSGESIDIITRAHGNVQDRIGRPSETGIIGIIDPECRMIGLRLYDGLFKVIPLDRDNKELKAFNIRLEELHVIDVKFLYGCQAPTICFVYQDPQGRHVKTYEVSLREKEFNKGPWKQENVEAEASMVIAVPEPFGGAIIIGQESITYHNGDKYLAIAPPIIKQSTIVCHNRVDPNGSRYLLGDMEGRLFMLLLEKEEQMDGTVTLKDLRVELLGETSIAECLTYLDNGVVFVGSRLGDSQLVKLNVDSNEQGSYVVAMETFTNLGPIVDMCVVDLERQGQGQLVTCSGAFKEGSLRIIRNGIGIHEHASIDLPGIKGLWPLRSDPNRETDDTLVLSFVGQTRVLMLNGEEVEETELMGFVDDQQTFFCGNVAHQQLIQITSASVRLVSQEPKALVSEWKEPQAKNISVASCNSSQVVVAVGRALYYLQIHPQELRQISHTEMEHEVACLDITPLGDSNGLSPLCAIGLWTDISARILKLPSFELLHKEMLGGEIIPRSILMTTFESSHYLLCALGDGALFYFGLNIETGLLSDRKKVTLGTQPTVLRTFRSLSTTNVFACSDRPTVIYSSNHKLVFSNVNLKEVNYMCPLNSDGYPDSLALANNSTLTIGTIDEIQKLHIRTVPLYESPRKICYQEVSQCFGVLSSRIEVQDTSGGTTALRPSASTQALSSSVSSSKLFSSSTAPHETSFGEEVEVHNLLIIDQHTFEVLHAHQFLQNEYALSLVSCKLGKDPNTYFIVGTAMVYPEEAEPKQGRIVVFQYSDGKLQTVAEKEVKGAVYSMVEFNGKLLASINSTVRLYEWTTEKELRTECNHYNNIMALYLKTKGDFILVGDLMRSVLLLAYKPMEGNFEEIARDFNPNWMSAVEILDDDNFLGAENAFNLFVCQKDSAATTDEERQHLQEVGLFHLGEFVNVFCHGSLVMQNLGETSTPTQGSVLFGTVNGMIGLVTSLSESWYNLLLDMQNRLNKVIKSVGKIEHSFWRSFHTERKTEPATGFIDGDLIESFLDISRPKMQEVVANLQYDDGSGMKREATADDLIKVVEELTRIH
UniProt Q92466: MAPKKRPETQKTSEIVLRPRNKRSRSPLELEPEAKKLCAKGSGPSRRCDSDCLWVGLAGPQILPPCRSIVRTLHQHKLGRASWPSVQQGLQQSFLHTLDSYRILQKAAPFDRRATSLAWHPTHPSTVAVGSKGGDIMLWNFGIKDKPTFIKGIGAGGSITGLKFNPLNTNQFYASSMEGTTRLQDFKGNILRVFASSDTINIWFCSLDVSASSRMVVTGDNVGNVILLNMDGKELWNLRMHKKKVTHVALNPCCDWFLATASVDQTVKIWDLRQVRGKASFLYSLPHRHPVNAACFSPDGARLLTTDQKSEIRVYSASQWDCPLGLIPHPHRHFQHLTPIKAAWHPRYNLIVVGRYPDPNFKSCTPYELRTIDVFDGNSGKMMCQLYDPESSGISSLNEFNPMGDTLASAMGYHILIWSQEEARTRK
UniProt P46527: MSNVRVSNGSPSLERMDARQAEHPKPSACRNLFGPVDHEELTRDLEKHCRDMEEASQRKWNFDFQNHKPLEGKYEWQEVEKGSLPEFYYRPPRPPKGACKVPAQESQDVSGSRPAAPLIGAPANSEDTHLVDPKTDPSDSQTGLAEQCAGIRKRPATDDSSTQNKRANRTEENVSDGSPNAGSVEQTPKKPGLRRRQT

How the values were obtained:
[1] = target: damage-specific DNA-binding protein 1 (human (endogenous in MCF-7)) (UniProt Q16531); assay: co-IP; two-step IP combined with western blot, under hypoxia; circPFKFB4 RNA also in the complex
[2] = target: damage-specific DNA-binding protein 1 (human (endogenous in MCF-7)) (UniProt Q16531); assay: co-IP; anti-DDB1, anti-DDB2 or IgG on magnetic beads mixed with hypoxic MCF-7 cell lysates at 4 °C overnight; western blot; cells with circPFKFB4 overexpression or knockdown
[3] = target: damage-specific DNA-binding protein 2 (human (endogenous in MCF-7)) (UniProt Q92466); assay: co-IP; hypoxic BC cells transfected with circPFKFB4 overexpression plasmid or circPFKFB4 knockdown; antibody-coated magnetic beads with cell lysates at 4 °C overnight; western blot

Substance	binding [1]	binding [2]	binding [3]
damage-specific DNA-binding protein 2 (from UniProt Q92466 1-427)	binds	binds	
p27 (from UniProt P46527 1-198)			binds
